Data from the supplement of paper PMC12067093, “Discovery and optimisation of a covalent ligand for TRIM25 and its application to targeted protein ubiquitination” (Chemical Science, 2025).
The other results are listed elsewhere or left out.

The chains behind the UniProt entries cited, without tags or fusion partners. Where a name states a change or a piece, a line headed by the entry shows the natural chain unless it says otherwise.
UniProt Q96T51: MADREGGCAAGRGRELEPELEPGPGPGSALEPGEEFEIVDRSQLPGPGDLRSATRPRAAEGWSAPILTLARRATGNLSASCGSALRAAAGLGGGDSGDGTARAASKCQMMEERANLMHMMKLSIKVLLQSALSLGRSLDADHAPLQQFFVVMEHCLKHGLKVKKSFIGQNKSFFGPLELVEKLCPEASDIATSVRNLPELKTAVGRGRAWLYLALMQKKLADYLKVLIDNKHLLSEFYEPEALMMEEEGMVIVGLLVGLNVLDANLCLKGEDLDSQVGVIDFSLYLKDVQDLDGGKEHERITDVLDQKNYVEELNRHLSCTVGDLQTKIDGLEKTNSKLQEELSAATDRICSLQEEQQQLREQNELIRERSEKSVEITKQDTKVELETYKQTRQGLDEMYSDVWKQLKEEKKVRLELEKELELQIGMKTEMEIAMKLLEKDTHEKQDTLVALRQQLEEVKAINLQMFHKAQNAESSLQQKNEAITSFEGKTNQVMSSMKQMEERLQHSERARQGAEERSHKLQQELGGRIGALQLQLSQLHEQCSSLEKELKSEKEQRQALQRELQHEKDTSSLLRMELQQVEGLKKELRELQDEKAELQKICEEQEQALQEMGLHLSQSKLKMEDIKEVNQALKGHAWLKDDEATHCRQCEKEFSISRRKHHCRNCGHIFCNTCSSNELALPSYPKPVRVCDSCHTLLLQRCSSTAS
UniProt Q9Y3I0: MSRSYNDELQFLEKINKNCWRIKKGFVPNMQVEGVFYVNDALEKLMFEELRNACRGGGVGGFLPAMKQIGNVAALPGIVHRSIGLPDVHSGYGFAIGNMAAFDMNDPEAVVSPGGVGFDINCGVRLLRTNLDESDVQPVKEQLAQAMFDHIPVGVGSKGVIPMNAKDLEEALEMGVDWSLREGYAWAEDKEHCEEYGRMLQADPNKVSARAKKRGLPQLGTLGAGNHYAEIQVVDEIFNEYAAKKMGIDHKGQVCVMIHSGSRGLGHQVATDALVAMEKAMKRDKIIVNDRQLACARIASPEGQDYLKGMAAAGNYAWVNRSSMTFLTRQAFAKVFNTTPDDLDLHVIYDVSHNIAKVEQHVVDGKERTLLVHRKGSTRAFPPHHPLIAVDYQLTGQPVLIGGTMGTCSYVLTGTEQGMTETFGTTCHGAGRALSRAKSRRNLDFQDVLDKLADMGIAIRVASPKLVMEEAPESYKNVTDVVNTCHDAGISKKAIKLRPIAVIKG
UniProt O43159: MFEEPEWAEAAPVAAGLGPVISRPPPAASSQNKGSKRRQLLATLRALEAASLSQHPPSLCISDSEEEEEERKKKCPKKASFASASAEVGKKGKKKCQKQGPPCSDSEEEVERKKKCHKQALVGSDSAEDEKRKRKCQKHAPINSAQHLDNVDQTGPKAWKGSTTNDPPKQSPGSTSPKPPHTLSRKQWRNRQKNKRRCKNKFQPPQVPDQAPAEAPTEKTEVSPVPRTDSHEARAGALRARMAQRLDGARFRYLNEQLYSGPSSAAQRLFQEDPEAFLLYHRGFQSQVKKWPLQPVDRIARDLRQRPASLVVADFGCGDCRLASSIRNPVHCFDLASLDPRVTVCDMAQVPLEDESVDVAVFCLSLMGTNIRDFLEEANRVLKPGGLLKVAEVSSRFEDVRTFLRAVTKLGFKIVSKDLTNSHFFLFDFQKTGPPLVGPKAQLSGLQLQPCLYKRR
UniProt O95197: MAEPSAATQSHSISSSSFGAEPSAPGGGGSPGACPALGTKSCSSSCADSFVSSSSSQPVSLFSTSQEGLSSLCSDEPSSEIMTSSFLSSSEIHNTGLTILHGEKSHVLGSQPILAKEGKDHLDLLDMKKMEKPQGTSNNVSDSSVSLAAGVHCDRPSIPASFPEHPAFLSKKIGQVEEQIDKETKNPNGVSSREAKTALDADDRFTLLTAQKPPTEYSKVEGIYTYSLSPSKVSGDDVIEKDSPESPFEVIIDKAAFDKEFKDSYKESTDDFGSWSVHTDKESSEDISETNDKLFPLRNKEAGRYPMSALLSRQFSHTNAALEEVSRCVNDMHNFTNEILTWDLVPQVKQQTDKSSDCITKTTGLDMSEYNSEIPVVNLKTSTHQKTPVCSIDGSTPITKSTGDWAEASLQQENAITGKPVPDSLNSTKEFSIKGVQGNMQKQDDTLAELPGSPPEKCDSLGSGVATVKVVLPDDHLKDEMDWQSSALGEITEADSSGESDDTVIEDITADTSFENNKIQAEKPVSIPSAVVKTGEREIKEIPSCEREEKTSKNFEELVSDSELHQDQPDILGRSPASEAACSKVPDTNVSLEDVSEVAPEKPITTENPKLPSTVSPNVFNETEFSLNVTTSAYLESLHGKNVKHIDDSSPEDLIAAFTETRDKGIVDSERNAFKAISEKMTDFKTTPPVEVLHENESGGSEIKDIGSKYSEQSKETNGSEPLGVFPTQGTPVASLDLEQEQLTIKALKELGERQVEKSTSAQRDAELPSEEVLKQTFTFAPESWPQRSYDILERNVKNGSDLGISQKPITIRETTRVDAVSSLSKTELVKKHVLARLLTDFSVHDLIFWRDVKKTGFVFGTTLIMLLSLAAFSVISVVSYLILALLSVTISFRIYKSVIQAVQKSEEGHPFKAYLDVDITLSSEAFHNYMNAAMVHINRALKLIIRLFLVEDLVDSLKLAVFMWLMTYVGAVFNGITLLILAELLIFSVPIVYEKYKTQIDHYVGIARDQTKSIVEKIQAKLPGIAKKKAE
UniProt Q5VWQ0: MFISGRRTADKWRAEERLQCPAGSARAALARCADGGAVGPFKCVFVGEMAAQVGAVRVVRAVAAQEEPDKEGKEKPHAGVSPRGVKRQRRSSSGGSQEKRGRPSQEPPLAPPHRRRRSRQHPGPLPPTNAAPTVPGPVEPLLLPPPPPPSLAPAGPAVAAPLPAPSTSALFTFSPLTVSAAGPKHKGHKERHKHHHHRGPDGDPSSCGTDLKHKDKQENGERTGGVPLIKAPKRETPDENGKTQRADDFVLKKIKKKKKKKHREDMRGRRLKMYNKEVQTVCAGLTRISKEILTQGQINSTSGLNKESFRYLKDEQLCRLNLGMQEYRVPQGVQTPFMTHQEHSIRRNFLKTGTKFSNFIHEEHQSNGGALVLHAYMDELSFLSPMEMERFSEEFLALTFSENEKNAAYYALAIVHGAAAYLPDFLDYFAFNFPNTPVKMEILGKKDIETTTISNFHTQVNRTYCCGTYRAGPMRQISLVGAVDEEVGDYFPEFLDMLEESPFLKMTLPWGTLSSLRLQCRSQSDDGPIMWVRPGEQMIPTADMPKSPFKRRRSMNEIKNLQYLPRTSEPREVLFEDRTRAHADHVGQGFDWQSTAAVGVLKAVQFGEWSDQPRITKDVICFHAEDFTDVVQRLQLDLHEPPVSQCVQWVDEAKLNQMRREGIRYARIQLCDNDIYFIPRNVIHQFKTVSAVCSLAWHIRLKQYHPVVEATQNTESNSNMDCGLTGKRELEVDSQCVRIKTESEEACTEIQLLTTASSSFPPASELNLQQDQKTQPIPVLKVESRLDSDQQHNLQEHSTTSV
UniProt Q8IZ73: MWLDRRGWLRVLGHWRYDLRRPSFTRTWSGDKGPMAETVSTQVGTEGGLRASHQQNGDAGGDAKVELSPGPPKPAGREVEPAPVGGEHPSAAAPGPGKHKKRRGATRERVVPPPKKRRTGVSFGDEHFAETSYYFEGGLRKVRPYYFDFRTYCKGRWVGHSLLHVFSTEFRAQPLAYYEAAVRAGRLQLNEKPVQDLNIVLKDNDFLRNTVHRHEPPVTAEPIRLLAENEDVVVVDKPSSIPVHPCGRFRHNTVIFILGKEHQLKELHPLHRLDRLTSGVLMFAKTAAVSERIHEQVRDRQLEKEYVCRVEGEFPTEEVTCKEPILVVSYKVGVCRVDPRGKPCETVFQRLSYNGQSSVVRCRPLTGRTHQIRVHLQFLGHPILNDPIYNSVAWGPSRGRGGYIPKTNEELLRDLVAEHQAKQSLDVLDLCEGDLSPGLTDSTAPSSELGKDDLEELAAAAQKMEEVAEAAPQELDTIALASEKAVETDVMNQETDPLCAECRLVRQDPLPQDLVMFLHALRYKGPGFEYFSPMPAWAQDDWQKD
UniProt P60903, whole entry: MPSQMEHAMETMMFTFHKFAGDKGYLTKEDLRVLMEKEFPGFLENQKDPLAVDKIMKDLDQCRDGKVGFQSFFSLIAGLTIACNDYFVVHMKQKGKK
UniProt P23443: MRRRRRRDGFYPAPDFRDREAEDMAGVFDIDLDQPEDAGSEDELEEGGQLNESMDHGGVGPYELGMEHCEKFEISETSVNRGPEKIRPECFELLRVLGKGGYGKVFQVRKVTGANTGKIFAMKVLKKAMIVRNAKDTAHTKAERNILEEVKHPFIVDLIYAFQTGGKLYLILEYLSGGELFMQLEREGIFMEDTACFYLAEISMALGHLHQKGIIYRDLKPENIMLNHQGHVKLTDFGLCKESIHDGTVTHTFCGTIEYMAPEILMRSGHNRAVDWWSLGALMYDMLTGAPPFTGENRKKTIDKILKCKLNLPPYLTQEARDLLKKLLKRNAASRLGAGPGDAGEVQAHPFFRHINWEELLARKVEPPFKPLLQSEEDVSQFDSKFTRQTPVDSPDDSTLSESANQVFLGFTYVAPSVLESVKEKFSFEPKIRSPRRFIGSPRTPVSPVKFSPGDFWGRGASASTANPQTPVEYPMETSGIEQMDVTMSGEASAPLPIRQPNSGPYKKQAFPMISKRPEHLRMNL
UniProt P31350, whole entry, looked up: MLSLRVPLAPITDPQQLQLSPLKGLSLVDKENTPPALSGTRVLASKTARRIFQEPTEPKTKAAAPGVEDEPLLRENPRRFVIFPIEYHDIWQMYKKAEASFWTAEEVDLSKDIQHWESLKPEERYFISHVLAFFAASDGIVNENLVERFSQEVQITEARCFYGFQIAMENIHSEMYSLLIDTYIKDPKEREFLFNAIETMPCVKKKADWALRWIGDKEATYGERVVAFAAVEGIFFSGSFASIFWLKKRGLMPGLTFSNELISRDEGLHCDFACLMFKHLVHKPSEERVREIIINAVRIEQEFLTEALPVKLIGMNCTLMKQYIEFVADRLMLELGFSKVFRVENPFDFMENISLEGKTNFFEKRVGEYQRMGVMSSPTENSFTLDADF
UniProt P26447: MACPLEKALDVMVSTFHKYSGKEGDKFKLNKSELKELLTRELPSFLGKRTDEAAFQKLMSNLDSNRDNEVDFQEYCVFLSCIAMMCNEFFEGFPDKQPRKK
UniProt Q9UBE0: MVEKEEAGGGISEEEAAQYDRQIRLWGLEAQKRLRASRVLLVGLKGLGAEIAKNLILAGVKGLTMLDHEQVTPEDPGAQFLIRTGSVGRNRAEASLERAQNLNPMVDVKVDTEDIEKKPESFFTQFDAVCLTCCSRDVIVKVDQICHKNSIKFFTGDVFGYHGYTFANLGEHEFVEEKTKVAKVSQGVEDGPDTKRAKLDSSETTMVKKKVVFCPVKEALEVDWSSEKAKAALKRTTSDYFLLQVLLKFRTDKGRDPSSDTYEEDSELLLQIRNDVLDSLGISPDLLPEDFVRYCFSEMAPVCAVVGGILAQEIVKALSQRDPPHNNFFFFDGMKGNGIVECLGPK
UniProt P56182: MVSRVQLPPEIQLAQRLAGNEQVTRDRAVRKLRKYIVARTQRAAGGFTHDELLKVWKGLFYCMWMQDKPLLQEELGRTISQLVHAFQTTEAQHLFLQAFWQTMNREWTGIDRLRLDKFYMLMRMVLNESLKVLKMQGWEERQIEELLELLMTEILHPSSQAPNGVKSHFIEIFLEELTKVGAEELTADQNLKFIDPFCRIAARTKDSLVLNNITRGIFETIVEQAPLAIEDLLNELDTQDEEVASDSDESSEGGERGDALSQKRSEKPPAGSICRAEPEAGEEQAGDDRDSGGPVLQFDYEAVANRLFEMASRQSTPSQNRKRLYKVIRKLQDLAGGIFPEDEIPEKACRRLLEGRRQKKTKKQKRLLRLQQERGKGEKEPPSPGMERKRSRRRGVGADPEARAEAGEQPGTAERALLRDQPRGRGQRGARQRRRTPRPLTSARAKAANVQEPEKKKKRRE
UniProt Q8N488: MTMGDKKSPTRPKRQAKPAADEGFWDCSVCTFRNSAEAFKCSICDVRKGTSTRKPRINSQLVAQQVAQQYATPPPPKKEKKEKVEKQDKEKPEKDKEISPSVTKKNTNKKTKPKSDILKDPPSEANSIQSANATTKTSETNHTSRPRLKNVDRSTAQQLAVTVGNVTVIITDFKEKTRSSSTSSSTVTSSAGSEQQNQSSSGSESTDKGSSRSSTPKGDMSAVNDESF

Compound: Cc1cc(ccc1-c1ccccc1)C(=O)N1CCCN(CC1)C(=O)CCl [compound 10]
Experiment: probe-labelled cysteine peptide fold change vs DMSO (competition) (log2 fold change); higher = less target engagement (more negative = stronger competition)
Conditions: THP-1, incubation time: 4 h
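Also: competitive profiling in live THP-1 cells: cysteine peptides tagged with an iodoacetamide desthiobiotin (IA-DTB) probe, intensity after compound treatment relative to DMSO-treated cells.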

Target	probe-labelled cysteine peptide fold change (10 µM)	probe-labelled cysteine peptide fold change (50 µM)
RUFY1_Q96T51_81_ATGNLSASCGSALR (UniProt Q96T51)	0.144	0.371
RUFY1_Q96T51_107_CQMMEER (UniProt Q96T51)	-0.21	-0.453
RTCB_Q9Y3I0_193_EHCEEYGR (UniProt Q9Y3I0)	-0.126	0.0353
RUVBL1_Q9Y265_206_CDTYATEFDLEAEEYVPLPK (UniProt Q9Y265)	0.167	0.0823
RRP8_O43159_451_AQLSGLQLQPCLYK (UniProt O43159)	-0.153	-0.57
RPS8_P62241_100_NCIVLIDSTPYR (UniProt P62241)	0.15	0.167
RPS21_P63220_17_CSASNR (UniProt P63220)	-0.0796	-0.11
RTN3_O95197-3_42_SCSSSCAVHDLIFWR (UniProt O95197)	-2.02	-1.97
RPS3A_P61247_111_MCSMVK (UniProt P61247)	-0.281	0.0513
RPS27A_P62979_121_RECPSDECGAGVFMASHFDR (UniProt P62979)	0.0999	-0.173
RSBN1_Q5VWQ0_282_EVQTVCAGLTR (UniProt Q5VWQ0)	-0.255	-0.509
RPS15A_P62244_30_RQVLIRPCSK (UniProt P62244)	-0.47	0.254
RREB1_Q92766_1251_ITCPHCPR (UniProt Q92766)	-0.0271	-0.108
RUVBL1_Q9Y265_311_YIDQGIAELVPGVLFVDEVHMLDIECFTYLHR (UniProt Q9Y265)	-0.122	-0.0523
RPS8_P62241_71+72_LDVGNFSWGSECCTR (UniProt P62241)	-0.311	-0.546
RPS3A_P61247_139_LFCVGFTK (UniProt P61247)	-0.263	0.25
RUVBL1_Q9Y265_141_EVYEGEVTELTPCETENPMGGYGK (UniProt Q9Y265)	-0.117	0.00274
RPUSD2_Q8IZ73_499+502_AVETDVMNQETDPLCAECR (UniProt Q8IZ73)	-0.0538	0.0709

Target	probe-labelled cysteine peptide fold change (10 µM)	probe-labelled cysteine peptide fold change (50 µM)
S100A10_P60903_62_DLDQCR (UniProt P60903)	-0.152	-0.0785
RSPRY1_Q96DX4_208_NTSAVLGCLAEK (UniProt Q96DX4)	-0.24	0.21
RUVBL1_Q9Y265_49_EACGVIVELIK (UniProt Q9Y265)	-0.171	0.0837
RPS6KB1_P23443_90_IRPECFELLR (UniProt P23443)	-0.152	-0.0416
RPS21_P63220_56_TYAICGAIR (UniProt P63220)	0.0519	-0.0533
RRM2_P31350_270_DEGLHCDFACLMFK (UniProt P31350)	-0.0303	-0.127
RPS5_P46782_155_RVNQAIWLLCTGAR (UniProt P46782)	-0.131	-0.0669
S100A4_P26447_3_ACPLEK (UniProt P26447)	-0.0729	-0.24
RPS12_P25398_50_RQAHLCVLASNCDEPMYVK (UniProt P25398)	0.13	-0.199
RUFY1_Q96T51_692_VCDSCHTLLLQR (UniProt Q96T51)	0.0636	-0.325
SAE1_Q9UBE0_134_VDTEDIEKKPESFFTQFDAVCLTCCSR (UniProt Q9UBE0)	-0.00481	-1.27
RPS8_P62241_182_LLACIASRPGQCGR (UniProt P62241)	-0.207	-0.296
RRP1_P56182_62_GLFYCMWMQDKPLLQEELGR (UniProt P56182)	-0.237	-0.963
SAMD9L_Q8IVG5_664_KKEDVLTALEILCENECTETDIEK (UniProt Q8IVG5)	-0.0324	-0.0811
SAE1_Q9UBE0_303_YCFSEMAPVCAVVGGILAQEIVK (UniProt Q9UBE0)	0.138	0.027
RPS27A_P62979_121+126_RECPSDECGAGVFMASHFDR (UniProt P62979)	-0.206	-0.381
RYBP_Q8N488_44_CSICDVR (UniProt Q8N488)	0.0958	-0.0668
